Measured values as given in paper PMC12411348.

Sequences of proteins named here, by UniProt entry; tags and fusion partners are left off.
UniProt P40337: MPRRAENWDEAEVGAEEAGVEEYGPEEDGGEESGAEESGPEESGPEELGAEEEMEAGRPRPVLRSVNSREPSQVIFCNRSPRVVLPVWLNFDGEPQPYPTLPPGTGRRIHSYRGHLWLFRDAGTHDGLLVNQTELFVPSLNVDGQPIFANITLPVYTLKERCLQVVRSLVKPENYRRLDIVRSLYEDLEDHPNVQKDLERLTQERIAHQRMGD
UniProt P55036: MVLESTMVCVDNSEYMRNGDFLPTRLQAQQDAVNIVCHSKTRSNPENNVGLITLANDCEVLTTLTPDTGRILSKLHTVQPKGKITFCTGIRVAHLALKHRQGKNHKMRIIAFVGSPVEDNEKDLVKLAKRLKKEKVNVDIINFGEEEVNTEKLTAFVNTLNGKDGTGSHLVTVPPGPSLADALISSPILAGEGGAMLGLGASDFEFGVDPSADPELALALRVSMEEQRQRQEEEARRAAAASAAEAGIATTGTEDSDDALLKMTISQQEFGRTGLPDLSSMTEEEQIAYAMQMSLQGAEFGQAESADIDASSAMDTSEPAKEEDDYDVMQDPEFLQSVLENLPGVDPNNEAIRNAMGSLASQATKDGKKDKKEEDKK

Target: Flag-pVHL (human) (UniProt P40337)
Assay: affinity purification with mass spectrometry; HEK293T cells transfected with pCS2-Flag or pCS2-Flag-pVHL for 48 h, MG132 (10 μM) for 8 h, anti-Flag immunoprecipitation, LC–MS/MS (DIA)

endogenous PSMD4 (subunit of the 19S regulatory particle of the 26S proteasome) (from UniProt P55036 1-377)
binding: binds

These are yes or no findings as the source states them, for the method shown. In cells and extracts the contact can be indirect. A yes stands for co-enrichment or nearness to the bait. Other partners may have been found.
